In all, about 400,000 compounds went through this assay and about 5,500 (1.4%) were called active. This list was built around the results that the source calls inconclusive (neither active nor inactive); the mix of calls is not that of the screen. Calls come from the whole dose curve; as a rule, active = well fitted cell-killing curve with a large enough effect; inconclusive = small, poorly fitted or top-dose-only effect, or effect the other way; inactive = flat fitted curve, though single readings scatter. A potency beside an inconclusive call is a rough fit, not a confirmed value.
Assay: qHTS assay for MDR1-selective chemotherapeutics: Primary screen using the parental adenocarcinoma cell KB-3-1; note: nearly all actives have a fitted effect of over 60% in size
Conditions: KB-3-1 viability, CellTiter-Glo ATP luminescence, 72 h; activity change, negative = cytotoxic: at 46.1 µM (top of the series)
Outline: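 Luminescent ATP read-out (CellTiter-Glo) measures survival of drug-naive KB-3-1 cells after 72 h compound exposure at 37 °C. Titration series was screened from lowest to highest concentration, with DMSO vehicle plates as background controls.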
% is set by controls: 0 for no effect and ±100 for the full control effect; potency is the fitted concentration of half-maximal effect.

| SMILES | Potency | activity change, negative = cytotoxic |
| --- | --- | --- |
| c1coc(CNc2ncnc3c2nc2n3CCCC2)c1 | inconclusive: 11.6 µM [rising, partial curve, poor fit] | – |
| Cc1cc(Br)c(NC(=O)CCl)c(Br)c1 | inconclusive: 29.1 µM [cytotoxic, single point] | – |
| CN(C)CCCn1c(N)c(C#N)c2nc(C#N)c(C#N)nc21 | active: 23.1 µM | – |
| CC1=NN2C(=N)/C(=C\c3ccc(SCc4ccccc4)o3)C(=O)N=C2S1 | inconclusive: 32.6 µM [rising, single point] | – |
| COc1ccc(CCNc2nc(-c3ccc(OC)c(OC)c3)cc(C(F)(F)F)n2)cc1OC | – | inconclusive: -46.5% |
| Cc1cccc(NC(=O)c2ccc(CN3CCc4ccccc4C3)cc2)c1C | inconclusive: 29.1 µM [cytotoxic, single point] | – |
| OC(CNCC1COc2ccccc2O1)COc1ccccc1F (centres undefined) | – | inactive: -3.04% |
| COc1cc2c(cc1CNC[C@H]1O[C@@H](n3ccc(N)nc3=O)[C@H](O)[C@@H]1O)OCO2 | inconclusive: 32.6 µM [rising, single point] | – |
| CCOC(=O)c1nnc(-c2ccccc2)nc1Sc1ccccc1Cl | inconclusive: 29.1 µM [cytotoxic, single point] | – |
| O=[N+]([O-])c1ccc(Cl)cc1NCCCN1CCOCC1 | – | inactive: -5.19% |
| Cc1ccc(/C=C/C(=O)NC(=S)Nc2ccc(S(=O)(=O)Nc3cc(C)on3)cc2)cc1 | inconclusive: 3.26 µM [rising, partial curve, poor fit] | – |
| CCN(c1ccc(OC)cc1)S(=O)(=O)N1CCCC(C(=O)NCc2cccc(C)c2)C1 (centres undefined) | – | inactive: -6.53% |
| CCCCOc1ccc(Br)cc1CSC(=N)N | active: 23.1 µM | – |
| COc1ccc(N(Cc2ccccc2)S(=O)(=O)c2cc(C(=O)O)ccc2Cl)cc1 | – | inactive: -5.18% |
| CC1CCCCN1C(=O)C1CCN(c2nc(-c3ccccc3)nc3c2CCC3)CC1 (centres undefined) | active: 20.6 µM | – |
| O=C(N/N=C/c1ccc(F)cc1)c1cc(-c2ccco2)nc2ccccc12 | inconclusive: 16.4 µM [cytotoxic, single point] | – |
| COc1ccc2occ(C(=O)c3ccc(N=C(C)N(C)C)cc3)c2c1 | inconclusive: 18.4 µM [cytotoxic, single point] | – |
| COc1ccc(Cl)cc1NC(=O)CSc1nc(NS(=O)(=O)c2ccc(C)cc2)cc(=O)[nH]1 | inconclusive: 23.1 µM [cytotoxic, single point] | – |
| c1cn2c(-c3ccc(N4CCOCC4)cc3)cncc2n1 | – | inactive: 0% |
| O=C(Cc1ccc(N2CCNC2=O)cc1)N1CCCC(Nc2cccc(F)c2)C1 (centres undefined) | active: 4.11 µM | – |
| O=C(Cn1ncc2c3ccccc3n(Cc3ccccc3)c2c1=O)N1CCN(c2ncccn2)CC1 | inconclusive: 18.4 µM [cytotoxic, partial curve, poor fit] | – |
| Cc1cccc(NC(=O)C(=O)NCC(c2cccnc2)N2CCc3ccccc3C2)c1C (centres undefined) | inconclusive: 25.9 µM [cytotoxic, partial curve, poor fit] | – |
| OC[C@H]1O[C@@H](c2nc(-c3ccccc3Br)no2)[C@H](O)[C@@H]1O | active: 7.31 µM | – |

Full records, looked up by structure. Values in the order: Potency | activity change, negative = cytotoxic
CC1=NN2C(=N)/C(=C\c3ccc(SCc4ccccc4)o3)C(=O)N=C2S1 as listed: inconclusive: 32.6 µM [rising, single point] | –
c1cn2c(-c3ccc(N4CCOCC4)cc3)cncc2n1 as listed: – | inactive: 0%
Cc1cccc(NC(=O)c2ccc(CN3CCc4ccccc4C3)cc2)c1C as listed: inconclusive: 29.1 µM [cytotoxic, single point] | –
COc1ccc(N(Cc2ccccc2)S(=O)(=O)c2cc(C(=O)O)ccc2Cl)cc1 as listed: – | inactive: -5.18%

(further entries)

| SMILES | Potency | activity change, negative = cytotoxic |
| --- | --- | --- |
| Cc1ccc(Cl)cc1N1CCN(C(=O)CCNS(=O)(=O)c2ccc3c(c2)CCN3C(=O)C2CC2)CC1 | inconclusive: 0.206 µM [cytotoxic, full curve] | – |
| C1CCN(CCCNC2C3CC4CC(C3)CC2C4)C1 (centres undefined) | inconclusive: 1.16 µM [cytotoxic, full curve, poor fit] | – |
| CCN(CCCNS(=O)(=O)c1cc(-c2cc(C)no2)ccc1C)Cc1ccccc1 | inconclusive: 16.4 µM [cytotoxic, single point] | – |
| COc1ccc(-c2nn(C)c(=O)c3ccccc23)cc1NS(C)(=O)=O | inconclusive: 29.1 µM [cytotoxic, single point] | – |
| COc1ccc(OC)c(NC(=O)c2cc(S(=O)(=O)NCCc3ccc(Cl)cc3)ccc2F)c1 | – | inactive: -4.48% |
| COc1cc(CCC(=O)Nc2ccc(Br)c(C(F)(F)F)c2)cc(OC)c1OC | – | inactive: -28% |
| COc1ccc(Cl)cc1C(=O)NNC(=S)NC(=O)c1cc(-c2ccccc2)nc2ccccc12 | inconclusive: 16.4 µM [cytotoxic, single point] | – |
| CC(=O)C(Sc1nn(C)c(=S)s1)C(=O)Nc1ccccc1 (centres undefined) | inconclusive: 23.1 µM [rising, single point] | – |
| N#C/C(=C/c1cccc(C(F)(F)F)c1)c1nc(CCN2C(=O)c3ccccc3C2=O)cs1 | – | inactive: -19% |
| CC1(C)N=C(N)N=C(N)N1CCCCc1ccccc1 | active: 1.46 µM | – |
| Cc1cc(C)cc(NC(=O)CCCn2c3ccccc3c(=O)c3ccccc32)c1 | inconclusive: 20.6 µM [cytotoxic, single point] | – |
| Cc1cccc(-n2ncc3c(N4CCC(C)CC4)ncnc32)c1 | – | inactive: 3.72% |
| COc1ccc(-n2c(C)cc(C(=O)COC(=O)Cn3cnc4ccccc43)c2C)cc1 | inconclusive: 11.2 µM [cytotoxic, partial curve, poor fit] | – |
| CCOc1ccc(NC(=O)c2ccc3c(c2)CCN3S(=O)(=O)c2ccc(Cl)cc2)cc1 | – | inactive: 3.18% |
| CC(=O)NC(C)c1cc(Cl)c2cccnc2c1O (centres undefined) | – | inactive: -7.42% |
| CC(=O)NC(=O)c1ccc(-c2ccc(Cl)cc2)o1 | inconclusive: 18.4 µM [cytotoxic, single point] | – |
| COc1cc(OC)c(NC(=O)C(=O)CC(=O)c2ccc(C)cc2C)cc1Cl | inconclusive: 25.9 µM [cytotoxic, single point] | – |
| CC1(C)Cc2c(sc(NC(=O)c3ccccc3)c2C(=O)O)CO1 | inconclusive: 16.4 µM [cytotoxic, single point] | – |
| CCOC(=O)C1CCCN(S(=O)(=O)c2ccc(OC)c3ccccc23)C1 (centres undefined) | inconclusive: 23.1 µM [cytotoxic, single point] | – |
| Cc1cccc2sc(NNC(=O)c3ccc(S(=O)(=O)N4CCCC(C)C4)cc3)nc12 (centres undefined) | active: 5.17 µM | – |
| CC(C)CC1C(=O)N(Cc2cn(CCC3OCCO3)nn2)CCS(=O)(=O)N1Cc1ccc(-c2ccccc2)cc1 (centres undefined) | inconclusive: 23.1 µM [cytotoxic, single point] | – |
| O=C(C1CCCN(S(=O)(=O)c2cccc3nsnc23)C1)N1CC=C(c2ccccc2)CC1 (centres undefined) | inconclusive: 29.1 µM [cytotoxic, single point] | – |
| O=C(c1cccc(OC2CCN(Cc3ccc(F)cc3)CC2)c1)N1CCCC1 | – | inactive: -9.48% |

| SMILES | Potency | activity change, negative = cytotoxic |
| --- | --- | --- |
| COc1ccc(C(=O)OCC(=O)c2ccc(F)cc2)cc1OC | inconclusive: 20.6 µM [rising, single point] | – |
| COc1ccc(CCNC(=O)c2ccnc(C(C)(C)C)c2)cc1OC | – | inactive: -10.5% |
| O=C(Nc1c(-c2ccccc2)nc2ccccn12)c1cccc(F)c1 | – | inconclusive: 0% |
| CC(C)(C)NC(=O)C(c1ccco1)N(C(=O)Cn1nnc(-c2ccc(F)cc2)n1)c1ccccc1 (centres undefined) | inconclusive: 29.1 µM [cytotoxic, single point] | – |
| Cc1cc(C)cc(NC(=S)NCCc2c[nH]c3ccccc23)c1 | inconclusive: 29.1 µM [cytotoxic, single point] | – |
| CCOC(=O)Cc1ccc(Nc2nc(NCc3ccccc3)nc3ccsc23)cc1 | inconclusive: 18.4 µM [cytotoxic, single point] | – |
| C/C(=N/NC(=O)c1sc(NS(=O)(=O)c2ccccc2)nc1C)c1sc(N)nc1C | inconclusive: 0.0259 µM [rising, full curve, poor fit] | – |
| CCCCCC(=O)N1C[C@@H](n2cc(COC(=O)c3ccccc3)nn2)[C@H](O)C[C@@H]1c1ccc(C)cc1 | – | inactive: 3.82% |
| O=C(c1cccnc1)N1CCN(Cc2cccc(F)c2)CC1 | – | inactive: 1.21% |
| CC1(C)OC(=O)C2=C(C[C@@H](C3CCCC3)O[C@H]2c2ccc(Cl)cc2)O1 | inconclusive: 29.1 µM [cytotoxic, single point] | – |
| O=C(CN1C(=O)c2ccccc2C1=O)C(O)CN1C(=O)c2ccccc2C1=O (centres undefined) | – | inactive: 0% |
| COc1ccc(-c2cc(NC=O)c3ncc(-c4ccccc4)n3c2)cc1OC | inconclusive: 23.1 µM [cytotoxic, single point] | – |
| COC(=O)C(NC(=O)CCc1c(C)nc2c(c(C)nn2-c2ccccc2)c1C)C(C)C (centres undefined) | inconclusive: 1.64 µM [rising, partial curve, poor fit] | – |
| Cc1cc(C)c(S(=O)(=O)/N=C2/C=C(SCC(=O)O)C(=O)c3ccccc32)cc1C | inconclusive: 18.4 µM [cytotoxic, single point] | – |
| Cc1cc(Cl)c(S(=O)(=O)N2CCCC2)cc1OCC(N)=O | – | inactive: -9.52% |
| O=c1c2ccccc2nc(-c2ccc(Cl)c(Cl)c2)n1O | inconclusive: 16.4 µM [cytotoxic, single point] | – |
| O=C(NCC(c1ccc(Cl)cc1)N1CCCCC1)c1ccccc1F (centres undefined) | – | inactive: 0% |
| CC1CCCCN1CCNC(=O)c1ccc2c(c1)N(Cc1ccccc1F)C(=O)c1ccccc1S2=O (centres undefined) | – | inactive: -17.9% |
| COc1ccc(-c2oc3ccc(N4CCOCC4)cc3c2C#Cc2ccc(N)cc2)cc1 | inconclusive: 29.1 µM [cytotoxic, single point] | – |
| COc1cc(OC)cc(C(=O)Nc2ccc3nc(Nc4cccc(C(F)(F)F)c4)cc(C)c3c2)c1 | inconclusive: 16.4 µM [cytotoxic, single point] | – |
| Cc1ccc(S(=O)(=O)N(CC(=O)N/N=C\c2cccs2)c2cccc3cccnc23)cc1 | inconclusive: 29.1 µM [rising, single point] | – |
| Cc1ccccc1CS(=O)(=O)CCC(=O)NCCN1CCN(c2cccc(Cl)c2)CC1 | – | inactive: -22.9% |
| CCc1nc2c(OCc3ccc(C(F)(F)F)cc3)cccn2c1N(C=O)Cc1ccc(OC)cc1 | inconclusive: 29.1 µM [cytotoxic, single point] | – |
